PubChem BioAssay AID1259308, NCATS | 2017
The deposit covers about 59,000 reagents; shown is an unselected part. Of all reagents, about 1,510 (2.6%) got an active call. 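Calls use total luciferase alone and ignore viability, so some active siRNAs may act by altering cell number.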 The numbers tell different reagents against one gene apart. No sequences are given here.

- Test: 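Genes whose loss raises luciferase production in HEK293 cells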 (primary screen)
- Cell system: human HEK293 embryonic kidney cells stably expressing firefly luciferase (HEK-CMV-Luc2-Hygro)
- Reagents: single siRNA against human genes, 0.8 pmol siRNA per well
- Time to read-out: 72 h
- Detection: 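Reporter luminescence and viable-cell signal on separate replicate plates, given as percent of non-targeting control and median/MAD z-scores, plus per-cell luciferase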
- Scale: total luciferase, z-score and total luciferase, % of control: higher = more reporter protein produced; luciferase per cell, z-score: higher = more reporter output per viable cell; viable cells, % of control: higher = more viable cells
- Call rule: 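Active when the median/MAD z-score for overall luciferase is greater than 3; a gene was taken forward for validation with new siRNAs if at least two of its three siRNAs passed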
- Calls: active = raised luciferase; inactive = no rise

| gene knocked down | siRNA no. | total luciferase, z-score | total luciferase, % of control | luciferase per cell, z-score | viable cells, % of control | call |
| --- | --- | --- | --- | --- | --- | --- |
| SLC25A44 | 1 | -2.92 | 23.9 | -2.14 | 46.9 | inactive |
| SLC25A44 | 2 | -0.107 | 79.8 | -0.461 | 101 | inactive |
| SLC25A44 | 3 | -0.536 | 71.2 | -0.729 | 96.4 | inactive |
| TAF11L2 | 1 | -0.0216 | 81.5 | 0.3 | 84.1 | inactive |
| TAF11L2 | 2 | 0.957 | 101 | 0.722 | 93.2 | inactive |
| TAF11L2 | 3 | 1.45 | 111 | 0.54 | 107 | inactive |
| ATP8B3 | 1 | -0.615 | 69.7 | -0.386 | 86.2 | inactive |
| ATP8B3 | 2 | 1.27 | 107 | 1.35 | 83.8 | inactive |
| ATP8B3 | 3 | -0.0199 | 81.5 | 0.526 | 79.3 | inactive |
| GCKR | 1 | 0.199 | 85.8 | 1.31 | 67.9 | inactive |
| GCKR | 2 | 0.00795 | 82 | -0.585 | 107 | inactive |
| GCKR | 3 | 1.56 | 113 | 1.32 | 89.2 | inactive |
| SSTR1 | 1 | -0.182 | 78.3 | 1.05 | 66.4 | inactive |
| SSTR1 | 2 | -0.96 | 62.8 | -0.334 | 76.6 | inactive |
| SSTR1 | 3 | 0.112 | 84.1 | 0.354 | 85.6 | inactive |
| PNLIP | 1 | -0.407 | 73.8 | -0.368 | 90.8 | inactive |
| PNLIP | 2 | 0.717 | 96.1 | 1.2 | 78.3 | inactive |
| PNLIP | 3 | -0.174 | 78.4 | -0.119 | 90.4 | inactive |
| EXOC3L2 | 1 | 0.781 | 97.4 | 0.327 | 99.9 | inactive |
| EXOC3L2 | 2 | -0.056 | 80.8 | -0.225 | 95.8 | inactive |
| EXOC3L2 | 3 | -0.758 | 66.8 | -0.436 | 83.7 | inactive |
| ZNF672 | 1 | -0.151 | 78.9 | -0.359 | 96.9 | inactive |
| ZNF672 | 2 | -0.945 | 63.1 | -1.47 | 104 | inactive |
| ZNF672 | 3 | 0.665 | 95.1 | 0.161 | 102 | inactive |
| CDH23 | 1 | 0.677 | 95.3 | 0.433 | 95.1 | inactive |
| CDH23 | 2 | -0.26 | 76.7 | -0.706 | 103 | inactive |
| CDH23 | 3 | -0.814 | 65.7 | -0.027 | 73.9 | inactive |
| IGF2 | 1 | 0.328 | 88.4 | -0.0195 | 99.3 | inactive |
| IGF2 | 2 | -0.935 | 63.3 | -1.21 | 97.3 | inactive |
| IGF2 | 3 | -0.66 | 68.8 | 1.46 | 52.3 | inactive |
| RDX | 1 | 0.075 | 83.4 | -0.00414 | 93.3 | inactive |
| RDX | 2 | 0.0249 | 82.4 | -0.282 | 99.2 | inactive |
| RDX | 3 | 0.519 | 92.2 | -0.222 | 109 | inactive |
| CIDEC | 1 | 0.908 | 99.9 | 0.5 | 97.9 | inactive |
| CIDEC | 2 | -0.57 | 70.6 | -0.735 | 95.7 | inactive |
| CIDEC | 3 | 0.306 | 88 | 1.22 | 71.3 | inactive |
| SPTLC3 | 1 | -0.793 | 66.1 | -1.6 | 113 | inactive |
| SPTLC3 | 2 | -1.29 | 56.2 | 0.401 | 56.5 | inactive |
| SPTLC3 | 3 | -0.041 | 81.1 | 0.249 | 84.8 | inactive |

Copied from the list:
For “total luciferase, z-score”, CDH23 #2 has -0.26
GCKR #3, total luciferase, z-score: 1.56
Result of RDX #3 under “luciferase per cell, z-score”: -0.222
Entry for ATP8B3 #2 in “viable cells, % of control”: 83.8
